In patent publication US20050181995A1:
Results are given in words; binding and its absence hold for the method and conditions named. Some results given as binding are weak or reduced against the parent protein; the word gives no strength.

Sequences of proteins named here, by UniProt entry; tags and fusion partners are left off. Residues count along the entry.
UniProt P35968, residues 20-764: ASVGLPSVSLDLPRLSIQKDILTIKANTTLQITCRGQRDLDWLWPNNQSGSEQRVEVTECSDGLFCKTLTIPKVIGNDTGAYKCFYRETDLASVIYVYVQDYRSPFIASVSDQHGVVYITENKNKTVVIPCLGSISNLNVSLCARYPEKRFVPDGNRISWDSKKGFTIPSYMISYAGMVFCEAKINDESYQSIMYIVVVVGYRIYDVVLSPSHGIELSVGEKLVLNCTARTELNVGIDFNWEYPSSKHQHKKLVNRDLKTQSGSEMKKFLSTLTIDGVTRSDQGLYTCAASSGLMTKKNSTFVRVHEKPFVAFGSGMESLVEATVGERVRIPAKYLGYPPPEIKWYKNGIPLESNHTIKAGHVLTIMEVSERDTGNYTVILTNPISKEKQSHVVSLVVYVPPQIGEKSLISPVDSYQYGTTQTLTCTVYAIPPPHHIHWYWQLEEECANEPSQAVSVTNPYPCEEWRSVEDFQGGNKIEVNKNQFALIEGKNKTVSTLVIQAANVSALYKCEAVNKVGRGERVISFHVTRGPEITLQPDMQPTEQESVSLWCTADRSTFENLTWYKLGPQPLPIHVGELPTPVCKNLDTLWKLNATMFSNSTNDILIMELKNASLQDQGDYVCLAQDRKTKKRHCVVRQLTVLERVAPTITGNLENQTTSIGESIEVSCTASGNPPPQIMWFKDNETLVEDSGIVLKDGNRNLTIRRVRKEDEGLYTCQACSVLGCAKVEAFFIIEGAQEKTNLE

Target: KDR-IgG (UniProt P35968)
Assay: SPR (BIAcore 3000), KDR-IgG immobilised on CM5 chip

B1: HF (hypotensive factor from the venom of Vipera aspis aspis) (ligand)
chain: EVRPFLEVHERSACQARETLVSILQEYPDEISDIFRPSCVAVLRCSGCCTDESLKCTPVGKHTVDLQIMRVNPRTQSSKMEVMKFTEHTACECRPRRKQGEPDGPKEKPR
Question: How did the binding turn out when B1 was run?
Answer: The binding was “binds”.
